Laboratory results as given in PMC3418287.
Where two headings read alike, the source gives them in different places. No constants are given. Whether binding was seen depends on the method and setting. In cells and extracts the contact can be indirect. These calls come from enrichment with a bait or labelling near it, and not all partners need be listed. For some of these results: A no says only that the protein was not detected with the bait. For some of these results: Where a sequence is shown, tags or fusion partners need not be part of it.

By UniProt entry, the sequences of proteins in these tests, tags left out.
UniProt Q15370: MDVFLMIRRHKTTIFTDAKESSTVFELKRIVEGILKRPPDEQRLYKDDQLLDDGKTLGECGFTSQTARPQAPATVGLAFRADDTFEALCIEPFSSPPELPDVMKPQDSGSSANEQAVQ

Experiments:
[1] = biological target: StrepII-Myc-3xHA-PRAME (HeLaS3 stable line) (human) (UniProt P78395); assay: affinity purification with mass spectrometry; TAG-PRAME purified from HeLaS3 nuclear and cytoplasmic extracts by anti-HA immunoprecipitation; eluates analysed by mass spectrometry; wild type HeLaS3 cells as control
[2] = biological target: StrepII-Myc-3xHA-PRAME (K562 stable line) (human) (UniProt P78395); assay: affinity purification with mass spectrometry; TAG-PRAME purified from K562 nuclear extracts on crosslinked anti-MYC beads (peptide elution) or anti-HA 12CA5 beads (acidic glycine pH 2.9 elution); eluates analysed by mass spectrometry; wild type K562 cells as control
[3] = biological target: T1, TAG-TP53RK (K562 stable line) (human) (UniProt Q96S44); assay: affinity purification with mass spectrometry; TAG-LAGE3, TAG-OSGEP, TAG-TP53RK or TAG-TPRKB purified from K562 nuclear extracts by anti-HA immunoprecipitation; eluates analysed by mass spectrometry; wild type K562 cells as control
T1 sequence: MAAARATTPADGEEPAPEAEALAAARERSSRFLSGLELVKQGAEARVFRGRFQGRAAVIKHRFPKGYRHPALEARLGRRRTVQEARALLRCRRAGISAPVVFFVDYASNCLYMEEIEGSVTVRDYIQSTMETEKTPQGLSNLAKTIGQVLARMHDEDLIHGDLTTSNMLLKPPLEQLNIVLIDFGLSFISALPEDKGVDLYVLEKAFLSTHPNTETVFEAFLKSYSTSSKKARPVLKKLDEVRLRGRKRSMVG

[4] = biological target: TAG-TPRKB (K562 stable line) (human) (UniProt Q9Y3C4); assay: as above
[5] = biological target: T2, TAG-LAGE3 (K562 stable line) (human) (UniProt Q14657); assay: as above
T2 sequence: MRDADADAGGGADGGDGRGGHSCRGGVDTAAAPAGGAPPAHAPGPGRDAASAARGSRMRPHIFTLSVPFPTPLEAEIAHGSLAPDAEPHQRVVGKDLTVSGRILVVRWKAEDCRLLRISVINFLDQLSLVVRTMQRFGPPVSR

[6] = biological target: T3, TAG-OSGEP (K562 stable line) (human) (UniProt Q9NPF4); assay: as above
T3 sequence: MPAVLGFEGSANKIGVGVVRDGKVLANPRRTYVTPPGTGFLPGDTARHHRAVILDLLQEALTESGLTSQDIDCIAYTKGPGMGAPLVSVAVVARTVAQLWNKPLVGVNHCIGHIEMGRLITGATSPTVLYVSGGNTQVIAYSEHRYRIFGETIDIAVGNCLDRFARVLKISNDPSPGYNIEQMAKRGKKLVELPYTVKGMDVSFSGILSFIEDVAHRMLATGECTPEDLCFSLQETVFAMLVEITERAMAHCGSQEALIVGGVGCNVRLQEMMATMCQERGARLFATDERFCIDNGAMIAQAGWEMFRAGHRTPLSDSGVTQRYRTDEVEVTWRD

[7] = biological target: T4, TAG-LAGE3 (HeLaS3 stable line) (human) (UniProt Q14657); assay: affinity purification with mass spectrometry; TAG-LAGE3 purified from nuclear extracts of HeLaS3 cells (very low to undetectable endogenous PRAME) by anti-HA immunoprecipitation; eluates analysed by mass spectrometry
T4 sequence: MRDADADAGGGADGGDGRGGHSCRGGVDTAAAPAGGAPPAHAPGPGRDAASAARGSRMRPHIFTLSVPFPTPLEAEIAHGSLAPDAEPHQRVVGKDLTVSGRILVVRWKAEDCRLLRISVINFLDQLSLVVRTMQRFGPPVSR

[8] = biological target: StrepII-Myc-3xHA-PRAME (K562 stable line) (human) (UniProt P78395); assay: affinity purification with mass spectrometry; TAG-PRAME purified from K562 nuclear extracts on crosslinked anti-MYC beads (peptide elution) or anti-HA 12CA5 beads (acidic glycine pH 2.9 elution); eluates analysed by mass spectrometry; wild type K562 cells as control; remark: listed apart in the source
[9] = biological target: StrepII-Myc-3xHA-PRAME (HeLaS3 stable line) (human) (UniProt P78395); assay: affinity purification with mass spectrometry; TAG-PRAME purified from HeLaS3 nuclear and cytoplasmic extracts by anti-HA immunoprecipitation; eluates analysed by mass spectrometry; wild type HeLaS3 cells as control; remark: listed apart in the source
[10] = biological target: T5, TAG-OSGEP (K562 stable line) (human), Q9NPF4; assay: affinity purification with mass spectrometry; TAG-LAGE3, TAG-OSGEP, TAG-TP53RK or TAG-TPRKB purified from K562 nuclear extracts by anti-HA immunoprecipitation; eluates analysed by mass spectrometry; wild type K562 cells as control; conditions: remark: other sources report otherwise
T5 chain: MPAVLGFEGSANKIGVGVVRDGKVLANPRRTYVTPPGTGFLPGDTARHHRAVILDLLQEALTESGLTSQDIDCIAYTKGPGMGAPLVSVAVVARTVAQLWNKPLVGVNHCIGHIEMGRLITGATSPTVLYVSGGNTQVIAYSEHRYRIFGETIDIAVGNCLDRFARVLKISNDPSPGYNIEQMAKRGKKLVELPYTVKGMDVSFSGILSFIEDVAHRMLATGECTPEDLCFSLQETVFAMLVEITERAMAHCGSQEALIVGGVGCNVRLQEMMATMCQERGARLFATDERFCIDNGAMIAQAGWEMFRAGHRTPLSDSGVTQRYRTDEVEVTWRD

Molecule: Elongin B (TCEB2 Transcription elongation factor B polypeptide 2) (from UniProt Q15370 1-118)
- binding [1]: binds
- binding [2]: binds

Molecule: endogenous PRAME (from UniProt P78395 1-509)
- binding [3]: no binding
- binding [4]: no binding
- binding [5]: binds
- binding [6]: binds

Molecule: endogenous TPRKB (TP53RK-binding protein) (from UniProt Q9Y3C4 1-175)
- binding [1]: no binding
- binding [7]: binds
- binding [2]: no binding
- binding [5]: binds

B1: endogenous OSGEP (Probable O-sialoglycoprotein endopeptidase) (protein, UniProt Q9NPF4 1-335)
chain: MPAVLGFEGSANKIGVGVVRDGKVLANPRRTYVTPPGTGFLPGDTARHHRAVILDLLQEALTESGLTSQDIDCIAYTKGPGMGAPLVSVAVVARTVAQLWNKPLVGVNHCIGHIEMGRLITGATSPTVLYVSGGNTQVIAYSEHRYRIFGETIDIAVGNCLDRFARVLKISNDPSPGYNIEQMAKRGKKLVELPYTVKGMDVSFSGILSFIEDVAHRMLATGECTPEDLCFSLQETVFAMLVEITERAMAHCGSQEALIVGGVGCNVRLQEMMATMCQERGARLFATDERFCIDNGAMIAQAGWEMFRAGHRTPLSDSGVTQRYRTDEVEVTWRD
- binding [8]: binds
- binding [9]: binds

B2: endogenous LAGE3 (L antigen family member 3) (protein, UniProt Q14657 1-143)
chain: MRDADADAGGGADGGDGRGGHSCRGGVDTAAAPAGGAPPAHAPGPGRDAASAARGSRMRPHIFTLSVPFPTPLEAEIAHGSLAPDAEPHQRVVGKDLTVSGRILVVRWKAEDCRLLRISVINFLDQLSLVVRTMQRFGPPVSR
- binding [8]: binds
- binding [4]: binds
- binding [9]: binds

B3: C14orf142 hypothetical protein LOC84520, Q9BXV9 1-100 (protein)
chain: MELLGEYVGQEGKPQKLRVSCEAPGDGDPFQGLLSGVAQMKDMVTELFDPLVQGEVQHRVAAAPDEDLDGDDEDDAEDENNIDNRTNFDGPSAKRPKTPS
- binding [10]: binds

B4: C14orf142 hypothetical protein LOC84520 (protein, UniProt Q9BXV9 1-100)
chain: MELLGEYVGQEGKPQKLRVSCEAPGDGDPFQGLLSGVAQMKDMVTELFDPLVQGEVQHRVAAAPDEDLDGDDEDDAEDENNIDNRTNFDGPSAKRPKTPS
- binding [3]: binds

B5: endogenous TP53RK (TP53-regulating kinase) (protein, UniProt Q96S44 1-253)
chain: MAAARATTPADGEEPAPEAEALAAARERSSRFLSGLELVKQGAEARVFRGRFQGRAAVIKHRFPKGYRHPALEARLGRRRTVQEARALLRCRRAGISAPVVFFVDYASNCLYMEEIEGSVTVRDYIQSTMETEKTPQGLSNLAKTIGQVLARMHDEDLIHGDLTTSNMLLKPPLEQLNIVLIDFGLSFISALPEDKGVDLYVLEKAFLSTHPNTETVFEAFLKSYSTSSKKARPVLKKLDEVRLRGRKRSMVG
- binding [8]: no binding
- binding [9]: no binding
